Source: paper PMC3961341
No constants are given. Whether binding was seen depends on the method and setting. Some entries that bind do so weakly or less than the wild type.

Biological target: T1, mouse IRF-3, endogenous (mouse (endogenous in MEF)), P70671
T1 chain: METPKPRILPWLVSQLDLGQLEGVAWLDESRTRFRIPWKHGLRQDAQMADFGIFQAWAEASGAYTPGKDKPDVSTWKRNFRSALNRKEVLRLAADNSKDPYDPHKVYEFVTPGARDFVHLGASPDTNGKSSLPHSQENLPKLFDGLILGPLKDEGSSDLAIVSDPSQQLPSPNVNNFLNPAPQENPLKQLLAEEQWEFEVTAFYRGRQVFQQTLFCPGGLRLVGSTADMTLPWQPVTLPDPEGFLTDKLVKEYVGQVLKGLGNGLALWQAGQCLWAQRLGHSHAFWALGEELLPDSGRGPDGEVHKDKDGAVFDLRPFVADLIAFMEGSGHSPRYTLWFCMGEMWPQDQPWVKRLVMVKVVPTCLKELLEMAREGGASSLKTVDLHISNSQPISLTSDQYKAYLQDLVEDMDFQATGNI
Test: native gel or EMSA
Conditions: remark: other sources report otherwise

B1: mouse IRF-3, endogenous, P70671 1-419 (protein)
chain: METPKPRILPWLVSQLDLGQLEGVAWLDESRTRFRIPWKHGLRQDAQMADFGIFQAWAEASGAYTPGKDKPDVSTWKRNFRSALNRKEVLRLAADNSKDPYDPHKVYEFVTPGARDFVHLGASPDTNGKSSLPHSQENLPKLFDGLILGPLKDEGSSDLAIVSDPSQQLPSPNVNNFLNPAPQENPLKQLLAEEQWEFEVTAFYRGRQVFQQTLFCPGGLRLVGSTADMTLPWQPVTLPDPEGFLTDKLVKEYVGQVLKGLGNGLALWQAGQCLWAQRLGHSHAFWALGEELLPDSGRGPDGEVHKDKDGAVFDLRPFVADLIAFMEGSGHSPRYTLWFCMGEMWPQDQPWVKRLVMVKVVPTCLKELLEMAREGGASSLKTVDLHISNSQPISLTSDQYKAYLQDLVEDMDFQATGNI
binding: binds
